Reference: the supplement of paper PMC4807443
Structures can show the parent of a compound that is named as a salt. The list shows a part of the results. The numbers are fractions of the control, whatever unit the source prints. Most values lie at the level of the controls, where differences are scatter.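 MIN6, a mouse insulinoma beta-cell line, stably carries a lentiviral reporter where Pdx1 and Ins1 promoters each drive a nuclear fluorescent protein; Hoechst staining and automated imaging counted cells. Drugs were candidate hits if Ins1 promoter readout exceeded two median absolute deviations from DMSO controls while Pdx1 activity stayed near normal.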

system: MIN6; assay: % Pdx1+ Ins1+ (double-positive, mature) cells relative to DMSO control (fold of DMSO control); higher = more mature Ins1 promoter-active cells; conditions: 8.5 µM; 48 h; glucose 5 mM

SMILES | % Pdx1+ Ins1+
C#C[C@]1(O)CC[C@H]2[C@@H]3CCC4=CCCC[C@@H]4[C@H]3CC[C@@]21C [Lynestrenol] | 1.03
CN1CCC(=C2c3ccccc3Sc3ccccc32)CC1 [Pimethixene maleate] | 1.01
N[C@@H](Cc1cc(I)c(Oc2ccc(O)c(I)c2)c(I)c1)C(=O)O [Liothyronine] | 1.01
C[C@]12C[C@H](O)[C@H]3[C@@H](CCC4=CC(=O)CC[C@@]43C)[C@@H]1CC[C@@H]2C(=O)CO [Corticosterone] | 0.916
C/C(=C(\CCOP(=O)(O)O)SC(=O)c1ccccc1)N(C=O)Cc1cnc(C)nc1N [Benfotiamine] | 0.89
CCN(CC)C(=S)SSC(=S)N(CC)CC [Disulfiram] | 1.11
O=c1cc(-c2ccccc2)oc2cc(O)cc(O)c12 [Chrysin] | 0.932
Cc1ccccc1OCC(O)CO (stereo unspecified) [Mephenesin] | 1.05
O=C1CN(/N=C/c2ccc([N+](=O)[O-])o2)C(=O)N1 [Nitrofurantoin] | 1.03
CCN(CC)CCOC(=O)C(Cc1cccc2ccccc12)CC1CCCO1 (stereo unspecified) [Nafronyl oxalate] | 0.963
C[C@H](N)[C@H](O)c1cccc(O)c1 [Metaraminol bitartrate] | 0.982
CCOC(=O)n1ccn(C)c1=S [Carbimazole] | 0.882
O=C1CN(/N=C/c2ccc(-c3ccc([N+](=O)[O-])cc3)o2)C(=O)N1 [Dantrolene sodium salt] | 0.941
Cc1cc(NS(=O)(=O)c2ccc(N)cc2)no1 [Sulfamethoxazole] | 1.12
CN[C@@H]1[C@@H](O)[C@@H](O[C@@H]2[C@@H](O)[C@H](O[C@H]3OC(CN)=CC[C@H]3N)[C@@H](N)C[C@H]2N)OC[C@]1(C)O [Sisomicin sulfate] | 1.01
CC1(C)S[C@@H]2[C@H](NC(=O)[C@H](C(=O)O)c3ccsc3)C(=O)N2[C@H]1C(=O)O [Ticarcillin sodium] | 0.848
CCCC1O[C@@H]2C[C@H]3[C@@H]4CCC5=CC(=O)C=C[C@]5(C)[C@H]4[C@@H](O)C[C@]3(C)[C@]2(C(=O)CO)O1 (stereo partly specified) [Budesonide] | 1
CC(C(=O)O)c1cccc(C(=O)c2ccccc2)c1 (stereo unspecified) [Ketoprofen] | 1.09
CCCCN(CCCC)CCC(O)c1cc2c(Cl)cc(Cl)cc2c2cc(C(F)(F)F)ccc12 (stereo unspecified) [Halofantrine hydrochloride] | 0.838
CCOc1cc(CC(=O)N[C@@H](CC(C)C)c2ccccc2N2CCCCC2)ccc1C(=O)O [Repaglinide] | 0.921
CC(=O)OCC(=O)[C@@]1(O)[C@H](C)C[C@H]2[C@@H]3CCC4=CC(=O)C=C[C@]4(C)[C@@]3(F)[C@@H](O)C[C@@]21C [Dexamethasone acetate] | 1.01
COc1ncnc(NS(=O)(=O)c2ccc(N)cc2)c1OC [Sulfadoxine] | 0.964
COc1ccc(C(=O)c2ccccc2)c(O)c1 [Oxybenzone] | 0.933
CCCCCN(CCCCC)C(=O)C(CCC(=O)O)NC(=O)c1ccc(Cl)c(Cl)c1 (stereo unspecified) [Lorglumide sodium salt] | 1.04

SMILES | % Pdx1+ Ins1+
CC(C)(C)NC(=O)[C@@H]1C[C@@H]2CCCC[C@@H]2CN1C[C@@H](O)[C@H](Cc1ccccc1)NC(=O)[C@H](CC(N)=O)NC(=O)c1ccc2ccccc2n1 [Saquinavir mesylate] | 0.809
Nc1nc2c(ncn2COCCO)c(=O)[nH]1 [Acyclovir] | 0.729
C[C@@H]1C[C@H]2[C@@H]3C[C@H](F)C4=CC(=O)C=C[C@]4(C)[C@@]3(Cl)[C@@H](O)C[C@]2(C)[C@H]1C(=O)COC(=O)C(C)(C)C [Clocortolone pivalate] | 0.858
CNCCCC12CCC(c3ccccc31)c1ccccc12 [Maprotiline hydrochloride] | 0.778
OC(c1cc(C(F)(F)F)nc2c(C(F)(F)F)cccc12)C1CCCCN1 (stereo unspecified) [Mefloquine hydrochloride] | 0.395
C[C@]12C=CC(=O)C=C1CC[C@H]1[C@@H]3C[C@@H](O)[C@](O)(C(=O)CO)[C@@]3(C)C[C@H](O)[C@@]12F [Triamcinolone] | 0.937
CC1(C)O[C@@H]2C[C@H]3[C@@H]4CCC5=CC(=O)CC[C@]5(C)[C@@]4(F)[C@@H](O)C[C@]3(C)[C@]2(C(=O)CCl)O1 [Halcinonide] | 0.776
C[C@@H](O)[C@H]1C(=O)N2C(C(=O)O)=C(S[C@@H]3CN[C@H](C(=O)N(C)C)C3)[C@H](C)[C@H]12 [Meropenem] | 1.03
CC(C)NC[C@H](O)COc1cccc2ccccc12 [(S)-propranolol hydrochloride] | 0.926
CC(=O)CCCCn1c(=O)c2c(ncn2C)n(C)c1=O [Pentoxifylline] | 1.09
CN1C(=O)OC(C)(C)C1=O [Trimethadione] | 0.972
CN(C/C=C/c1ccccc1)Cc1cccc2ccccc12 [Naftifine hydrochloride] | 0.912
CN(C)CCCSC(=N)N [Dimaprit dihydrochloride] | 0.908
Cc1onc(-c2c(F)cccc2Cl)c1C(=O)N[C@@H]1C(=O)N2[C@@H]1SC(C)(C)[C@@H]2C(=O)O [Flucloxacillin sodium] | 1.02
CCN1CCCC(OC(=O)C(c2ccccc2)c2ccccc2)C1 (stereo unspecified) [Piperidolate hydrochloride] | 0.903
COc1c(C)c2c(c(O)c1C/C=C(\C)CCC(=O)O)C(=O)OC2 [Mycophenolic acid] | 0.754
CC(=O)NC(CC(=O)O)C(=O)O (racemic) [Aspartic acid, N-acetyl (R,S)] | 0.93
NS(=O)(=O)c1cc(Cl)c(Cl)c(S(N)(=O)=O)c1 [Dichlorphenamide] | 1
CNC[C@H](O)[C@@H](O)[C@H](O)[C@H](O)CO [Meglumine] | 0.886
Nc1ccc(S(=O)(=O)Nc2cnc3ccccc3n2)cc1 [Sulfaquinoxaline sodium salt] | 0.836
C[C@H]1NC(=O)NC1=O [Methylhydantoin-5-(D)] | 1.05
Cc1ccnc(NS(=O)(=O)c2ccc(N)cc2)n1 [Sulfamerazine] | 0.772
N=C(N)NCc1cccc(I)c1 [Iobenguane sulfate] | 0.769
COc1ccc(C[C@H](N)C(=O)N[C@H]2[C@@H](O)[C@H](n3cnc4c(N(C)C)ncnc43)O[C@@H]2CO)cc1 [Puromycin dihydrochloride] | 0.279

Single values from the entries so far.
% Pdx1+ Ins1+ with C[C@@H]1C[C@H]2[C@@H]3C[C@H](F)C4=CC(=O)C=C[C@]4(C)[C@@]3(Cl)[C@@H](O)C[C@]2(C)[C@H]1C(=O)COC(=O)C(C)(C)C [Clocortolone pivalate] is entered as 0.858
% Pdx1+ Ins1+ with CN(C/C=C/c1ccccc1)Cc1cccc2ccccc12 [Naftifine hydrochloride] is entered as 0.912
% Pdx1+ Ins1+ with C[C@]12C=CC(=O)C=C1CC[C@H]1[C@@H]3C[C@@H](O)[C@](O)(C(=O)CO)[C@@]3(C)C[C@H](O)[C@@]12F [Triamcinolone] is entered as 0.937

(list continues)

SMILES | % Pdx1+ Ins1+
CC(C)n1c(/C=C/C(O)CC(O)CC(=O)O)c(-c2ccc(F)cc2)c2ccccc21 (stereo unspecified) [Fluvastatin sodium salt] | 0.897
CC(=O)Oc1ccccc1C(=O)Oc1ccccc1C(=O)O [Acetylsalicylsalicylic acid] | 1.08
CCCCNc1cc(C(=O)O)cc(S(N)(=O)=O)c1Oc1ccccc1 [Bumetanide] | 1.04
CNC(=O)c1c(I)c(C(=O)NCC(=O)Nc2c(I)c(C(=O)O)c(I)c(C(=O)NCCO)c2I)c(I)c(N(C)C(C)=O)c1I [Ioxaglic acid] | 0.985
CC[C@H](C)C(=O)O[C@H]1C[C@@H](C)C=C2C=C[C@H](C)[C@H](CC[C@@H]3C[C@@H](O)CC(=O)O3)[C@H]21 [Lovastatin] | 0.883
Cc1c(C)c2c(c(C)c1O)CCC(C)(C(=O)O)O2 (stereo unspecified) [Trolox] | 0.926
CC(C)=CCC/C(C)=C/CC/C(C)=C/CC/C(C)=C/CC/C(C)=C/CC/C(C)=C/CC1=C(C)C(=O)c2ccccc2C1=O [Vitamin K2] | 0.888
CCN(CC)CCOC(=O)c1ccc(N)cc1 [Procaine hydrochloride] | 1.05
CC(=O)O[C@H]1C[C@@]2(C)[C@@H](C[C@@H](O)[C@H]3[C@@]4(C)CC[C@@H](O)[C@@H](C)[C@@H]4CC[C@@]32C)/C1=C(\CCC=C(C)C)C(=O)O [Fusidic acid sodium salt] | 1.05
CN(C)CCn1nnnc1SCC1=C(C(=O)O)N2C(=O)[C@@H](NC(=O)Cc3csc(N)n3)[C@H]2SC1 [Cefotiam hydrochloride] | 0.774
CC(=O)O[C@]1(C(C)=O)CC[C@H]2[C@@H]3C=C(C)C4=CC(=O)CC[C@@H]4[C@H]3CC[C@@]21C [Nomegestrol acetate] | 1.02
NS(=O)(=O)c1cc2c(cc1Cl)N=C(CSCc1ccccc1)NS2(=O)=O [Benzthiazide] | 0.937
O=C1C(CC[S+]([O-])c2ccccc2)C(=O)N(c2ccccc2)N1c1ccccc1 (stereo unspecified) [Sulfinpyrazone] | 1.11
C[C@]12C=CC(=O)C=C1CC[C@@H]1[C@@H]2[C@@H](O)C[C@@]2(C)[C@H]1CC[C@]2(O)C(=O)CO [Prednisolone] | 1.05
CS(=O)(=O)c1ccc([C@@H](O)[C@@H](CO)NC(=O)C(Cl)Cl)cc1 [Thiamphenicol] | 0.955
CC(C)Cc1ccc([C@H](C)C(=O)O)cc1 [S-(+)-ibuprofen] | 1.11
CC(=O)Oc1cc(C(F)(F)F)ccc1C(=O)O [Triflusal] | 0.959
O=C(O)Cc1ccccc1Nc1c(Cl)cccc1Cl [Diclofenac sodium] | 1.04
CN1CCN(CCCN2c3ccccc3Sc3ccc(S(=O)(=O)N(C)C)cc32)CC1 [Thioproperazine dimesylate] | 1.02
COC(=O)C1=C(C)NC(C)=C(C(=O)OC)C1c1ccccc1[N+](=O)[O-] [Nifedipine] | 1.19
Cc1cc(NC(=O)C2=C(O)c3ccccc3S(=O)(=O)N2C)no1 [Isoxicam] | 1.13
Cc1cc(C(C)(C)CC(C)(C)C)ccc1OCCOCC[N+](C)(C)Cc1ccccc1 [Methyl benzethonium chloride] | 0.0827
CN(C)CCCN1c2ccccc2CCc2ccc(Cl)cc21 [Clomipramine hydrochloride] | 0.927
